The values that follow come from doi:10.1101/495762 (bioRxiv, 2018).

No constants are given. Whether binding was seen depends on the method and setting. Binding seen in cells or lysates may run through a third protein. Some binding calls cover weakened binding; strength is not graded here. Where a sequence is shown, tags or fusion partners need not be part of it.

The target of assay [1] is T1, Smc3(K198C)-PK6 (S. cerevisiae) (UniProt P47037).
T1 sequence: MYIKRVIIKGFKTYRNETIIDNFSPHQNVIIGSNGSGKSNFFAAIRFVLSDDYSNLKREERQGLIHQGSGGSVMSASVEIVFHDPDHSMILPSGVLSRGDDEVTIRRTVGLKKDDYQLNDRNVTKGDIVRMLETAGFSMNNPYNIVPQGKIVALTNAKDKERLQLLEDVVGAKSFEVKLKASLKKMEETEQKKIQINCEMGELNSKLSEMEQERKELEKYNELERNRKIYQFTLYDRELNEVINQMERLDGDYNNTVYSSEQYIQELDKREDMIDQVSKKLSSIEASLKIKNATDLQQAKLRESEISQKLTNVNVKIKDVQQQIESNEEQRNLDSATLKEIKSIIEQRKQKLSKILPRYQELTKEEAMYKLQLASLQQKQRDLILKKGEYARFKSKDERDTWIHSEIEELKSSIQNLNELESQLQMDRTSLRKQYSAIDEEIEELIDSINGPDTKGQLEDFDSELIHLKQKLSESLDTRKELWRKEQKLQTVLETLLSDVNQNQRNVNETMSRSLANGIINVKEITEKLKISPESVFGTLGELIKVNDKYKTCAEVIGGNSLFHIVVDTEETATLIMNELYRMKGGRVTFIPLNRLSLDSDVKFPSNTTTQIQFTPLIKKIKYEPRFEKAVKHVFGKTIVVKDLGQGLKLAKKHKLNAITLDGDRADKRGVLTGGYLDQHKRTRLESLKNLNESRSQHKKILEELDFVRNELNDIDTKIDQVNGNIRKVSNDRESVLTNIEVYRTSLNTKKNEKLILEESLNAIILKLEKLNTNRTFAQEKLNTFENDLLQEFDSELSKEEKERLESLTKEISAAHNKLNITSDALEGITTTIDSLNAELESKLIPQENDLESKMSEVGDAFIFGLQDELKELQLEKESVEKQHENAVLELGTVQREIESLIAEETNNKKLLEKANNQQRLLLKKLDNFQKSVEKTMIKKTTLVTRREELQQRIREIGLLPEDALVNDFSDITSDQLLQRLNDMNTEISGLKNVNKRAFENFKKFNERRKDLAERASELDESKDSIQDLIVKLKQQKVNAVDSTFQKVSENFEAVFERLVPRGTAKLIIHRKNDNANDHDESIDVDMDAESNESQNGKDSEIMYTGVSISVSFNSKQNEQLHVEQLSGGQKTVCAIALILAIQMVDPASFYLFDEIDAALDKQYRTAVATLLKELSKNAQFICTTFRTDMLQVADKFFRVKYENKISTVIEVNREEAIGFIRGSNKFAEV
The assay is described as follows: cross-linking.

The target of assay [2] is T2, Smc3(R1222C) (S. cerevisiae) (UniProt P47037).
T2 sequence: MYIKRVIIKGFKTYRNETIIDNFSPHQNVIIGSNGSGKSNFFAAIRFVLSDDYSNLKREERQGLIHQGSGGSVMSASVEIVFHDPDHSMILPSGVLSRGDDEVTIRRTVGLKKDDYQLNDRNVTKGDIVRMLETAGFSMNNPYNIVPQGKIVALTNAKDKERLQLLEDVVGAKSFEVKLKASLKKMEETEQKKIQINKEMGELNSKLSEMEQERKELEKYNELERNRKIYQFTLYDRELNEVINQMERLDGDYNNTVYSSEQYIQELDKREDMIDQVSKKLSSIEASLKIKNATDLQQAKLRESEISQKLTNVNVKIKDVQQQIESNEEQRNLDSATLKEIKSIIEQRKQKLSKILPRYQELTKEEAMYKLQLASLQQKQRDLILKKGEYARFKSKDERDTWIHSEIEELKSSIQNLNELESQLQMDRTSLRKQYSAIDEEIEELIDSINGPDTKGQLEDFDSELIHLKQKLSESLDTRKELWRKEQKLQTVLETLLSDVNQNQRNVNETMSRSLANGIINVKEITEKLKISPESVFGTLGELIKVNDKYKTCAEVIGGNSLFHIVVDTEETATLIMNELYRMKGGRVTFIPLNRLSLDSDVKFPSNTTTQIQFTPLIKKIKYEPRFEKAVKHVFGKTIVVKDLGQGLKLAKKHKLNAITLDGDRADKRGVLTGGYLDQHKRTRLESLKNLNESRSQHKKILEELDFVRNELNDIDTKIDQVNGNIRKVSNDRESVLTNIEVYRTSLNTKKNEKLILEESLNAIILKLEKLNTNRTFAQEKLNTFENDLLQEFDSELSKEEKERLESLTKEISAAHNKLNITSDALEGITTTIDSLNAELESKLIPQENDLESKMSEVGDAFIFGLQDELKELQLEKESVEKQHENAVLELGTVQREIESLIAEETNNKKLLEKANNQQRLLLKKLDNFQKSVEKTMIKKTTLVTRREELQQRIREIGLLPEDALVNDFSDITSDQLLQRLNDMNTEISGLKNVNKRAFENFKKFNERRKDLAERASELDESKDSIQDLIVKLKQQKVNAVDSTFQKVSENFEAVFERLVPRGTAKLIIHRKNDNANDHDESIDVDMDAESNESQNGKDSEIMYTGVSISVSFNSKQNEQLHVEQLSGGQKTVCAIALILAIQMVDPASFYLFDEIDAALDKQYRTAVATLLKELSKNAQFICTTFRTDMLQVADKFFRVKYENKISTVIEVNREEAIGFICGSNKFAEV
The assay is described as follows: cross-linking.

B1: Smc1(K201C)-myc9 (protein, UniProt P32908 1-1225)
chain: MGRLVGLELSNFKSYRGVTKVGFGESNFTSIIGPNGSGKSNMMDAISFVLGVRSNHLRSNILKDLIYRGVLNDENSDDYDNEGAASSNPQSAYVKAFYQKGNKLVELMRIISRNGDTSYKIDGKTVSYKDYSIFLENENILIKAKNFLVFQGDVEQIAAQSPVELSRMFEEVSGSIQYKKEYEELKEKIEKLSKSATESICNRRRIHGELKTYKEGINKNEEYRKQLDKKNELQKFQALWQLYHLEQQKEELTDKLSALNSEISSLKGKINNEMKSLQRSKSSFVKESAVISKQKSKLDYIFKDKEKLVSDLRLIKVPQQAAGKRISHIEKRIESLQKDLQRQKTYVERFETQLKVVTRSKEAFEEEIKQSARNYDKFKLNENDLKTYNCLHEKYLTEGGSILEEKIAVLNNDKREIQEELERFNKRADISKRRITEELSITGEKLDTQLNDLRVSLNEKNALHTERLHELKKLQSDIESANNQEYDLNFKLRETLVKIDDLSANQRETMKERKLRENIAMLKRFFPGVKGLVHDLCHPKKEKYGLAVSTILGKNFDSVIVENLTVAQECIAFLKKQRAGTASFIPLDTIETELPTLSLPDSQDYILSINAIDYEPEYEKAMQYVCGDSIICNTLNIAKDLKWKKGIRGKLVTIEGALIHKAGLMTGGISGDANNRWDKEEYQSLMSLKDKLLIQIDELSNGQRSNSIRAREVENSVSLLNSDIANLRTQVTQQKRSLDENRLEIKYHNDLIEKEIQPKITELKKKLDDLENTKDNLVKEKEALQNNIFKEFTSKIGFTIKEYENHSGELMRQQSKELQQLQKQILTVENKLQFETDRLSTTQRRYEKAQKDLENAQVEMKSLEEQEYAIEMKIGSIESKLEEHKNHLDELQKKFVTKQSELNSSEDILEDMNSNLQVLKRERDGIKEDIEKFDLERVTALKNCKISNINIPISSETTIDDLPISSTDNEAITISNSIDINYKGLPKKYKENNTDSARKELEQKIHEVEEILNELQPNARALERYDEAEGRFEVINNETEQLKAEEKKILNQFLKIKKKRKELFEKTFDYVSDHLDAIYRELTKNPNSNVELAGGNASLTIEDEDEPFNAGIKYHATPPLKRFKDMEYLSGGEKTVAALALLFAINSYQPSPFFVLDEVDAALDITNVQRIAAYIRRHRNPDLQFIVISLKNTMFEKSDALVGVYRQQQENSSKIITLDLSNYAE
Turning to B1, the binding entry in assay [1] is reported as “binds”.

B2: Smc1(D1164E, N1192C)-HA (protein, UniProt P32908 1-1225)
chain: MGRLVGLELSNFKSYRGVTKVGFGESNFTSIIGPNGSGKSNMMDAISFVLGVRSNHLRSNILKDLIYRGVLNDENSDDYDNEGAASSNPQSAYVKAFYQKGNKLVELMRIISRNGDTSYKIDGKTVSYKDYSIFLENENILIKAKNFLVFQGDVEQIAAQSPVELSRMFEEVSGSIQYKKEYEELKEKIEKLSKSATESIKNRRRIHGELKTYKEGINKNEEYRKQLDKKNELQKFQALWQLYHLEQQKEELTDKLSALNSEISSLKGKINNEMKSLQRSKSSFVKESAVISKQKSKLDYIFKDKEKLVSDLRLIKVPQQAAGKRISHIEKRIESLQKDLQRQKTYVERFETQLKVVTRSKEAFEEEIKQSARNYDKFKLNENDLKTYNCLHEKYLTEGGSILEEKIAVLNNDKREIQEELERFNKRADISKRRITEELSITGEKLDTQLNDLRVSLNEKNALHTERLHELKKLQSDIESANNQEYDLNFKLRETLVKIDDLSANQRETMKERKLRENIAMLKRFFPGVKGLVHDLCHPKKEKYGLAVSTILGKNFDSVIVENLTVAQECIAFLKKQRAGTASFIPLDTIETELPTLSLPDSQDYILSINAIDYEPEYEKAMQYVCGDSIICNTLNIAKDLKWKKGIRGKLVTIEGALIHKAGLMTGGISGDANNRWDKEEYQSLMSLKDKLLIQIDELSNGQRSNSIRAREVENSVSLLNSDIANLRTQVTQQKRSLDENRLEIKYHNDLIEKEIQPKITELKKKLDDLENTKDNLVKEKEALQNNIFKEFTSKIGFTIKEYENHSGELMRQQSKELQQLQKQILTVENKLQFETDRLSTTQRRYEKAQKDLENAQVEMKSLEEQEYAIEMKIGSIESKLEEHKNHLDELQKKFVTKQSELNSSEDILEDMNSNLQVLKRERDGIKEDIEKFDLERVTALKNCKISNINIPISSETTIDDLPISSTDNEAITISNSIDINYKGLPKKYKENNTDSARKELEQKIHEVEEILNELQPNARALERYDEAEGRFEVINNETEQLKAEEKKILNQFLKIKKKRKELFEKTFDYVSDHLDAIYRELTKNPNSNVELAGGNASLTIEDEDEPFNAGIKYHATPPLKRFKDMEYLSGGEKTVAALALLFAINSYQPSPFFVLDEVDAALEITNVQRIAAYIRRHRNPDLQFIVISLKCTMFEKSDALVGVYRQQQENSSKIITLDLSNYAE
Consider B2, for which the binding result in assay [2] was “binds”.
